Test results as given in ChEMBL document CHEMBL2321647, “Biological evaluation of new largazole analogues: alteration of macrocyclic scaffold with click chemistry” (ACS Med Chem Lett, 2013).

Protein sequences, listed by entry. Tags and fused reporters are not part of them. Lines headed by an entry give the natural chain unless they say otherwise; changes in a name come on top.
UniProt O15379: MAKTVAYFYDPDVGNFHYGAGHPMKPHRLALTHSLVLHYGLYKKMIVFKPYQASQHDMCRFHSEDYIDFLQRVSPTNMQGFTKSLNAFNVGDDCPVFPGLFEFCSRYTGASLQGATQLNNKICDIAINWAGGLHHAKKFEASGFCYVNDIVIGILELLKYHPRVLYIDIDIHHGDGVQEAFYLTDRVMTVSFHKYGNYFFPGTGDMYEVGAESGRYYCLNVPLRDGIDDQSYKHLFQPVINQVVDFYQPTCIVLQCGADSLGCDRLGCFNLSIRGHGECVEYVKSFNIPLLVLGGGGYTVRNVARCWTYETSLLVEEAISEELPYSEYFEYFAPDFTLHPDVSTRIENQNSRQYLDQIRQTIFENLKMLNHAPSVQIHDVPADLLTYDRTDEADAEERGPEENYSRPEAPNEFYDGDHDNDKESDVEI

Target: Histone deacetylase 3 (Homo sapiens, UniProt O15379)
Experiment: Inhibition of C-terminal His-tagged full length human recombinant HDAC3 co-expressed with NcoR2 in baculovirus expression system using fluorogenic acetylated peptide as substrate preincubated with enzyme for 10 mins prior to substrate addition measured after 60 mins by fluorescence analysis

Compound CCCCCCCC(=O)SCC/C=C/[C@@H]1CC(=O)NCc2nc(cs2)C2=N[C@@](C)(CS2)C(=O)N[C@@H](C(C)C)C(=O)O1 [LARGAZOLE] has an IC50 of 604 nM.
